# Laboratory results reported in patent US20060058320A1, “[1,2,4] Triazolo[1,5-c]pyrimidine derivatives” (KYOWA HAKKO KOGYO CO., LTD., priority 2002, published 2006).
# Counter-ions that a name gives are not always drawn. At least one read-out could not be matched to a standard name with certainty.
# System: CGS 21680-induced catalepsy
# Assay: Activity on CGS 21680-induced catalepsy
# Type: in vivo, mice
# Conditions: cases with catalepsy score of 4 points or less in 10 cases; 10 mg/kg orally
# Description: Parkinson's disease is a motor disorder based on degeneration and cell death of the nigrostriatal dopaminergic neurons. When CGS 21680 (adenosine A2A receptor agonist) is administered into the intracerebral ventricle, the inhibitory synaptic transmission of GABA in the medium sized spiny neurons in the corpus striatum is inhibited directly via the adenosine A2A receptor [Journal of Neuroscience, vol. 16, p. 605 (1996)]. Accordingly, it is concidered that the adenosine A2A receptor agonists positively regulate the output of the GABAergic neurons from the corpus striatum to the globus pallidus lateralis, and, as a result, catalepsy is induced by the administration of CGS 21680.
# The test was carried out using ten 5-week age male ddY mice (22-25 g in body weight, Japan SLC) per group. CGS 21680 (produced by RBI Co) was dissolved in physiological saline (produced by Otsuka Pharmaceutical Co., Ltd.), and 10 μg/20 μL of the solution was injected into mouse intracerebral ventricle. Each test compound was used by suspending it in distilled water containing 0.3% of polyoxylene (20) sorbitan monooleate (referred to as “Tween 80” hereinafter) (produced by Otsuka Pharmaceutical Co., Ltd.). The suspension containing each test compound or a solution containing no test Compound (distilled water containing 0.3% of Tween 80; used as a control) was orally administered (0.1 mL per 10 g of mouse body weight) 30 minutes before the injection of CGS 21680 into the intracerebral ventricle. One hour after the administration of the each test compound, only forelimbs or only hindlimbs of each mouse were laid on a vertically arranged stand made of acryl and having a size of 4.5 cm in height and 1.0 cm in width to measure catalepsy symptoms. All of the test compounds were administered orally in a dose of 10 mg/kg.
# The criteria of the catalepsy score are shown below.
# The effect was decided by a total catalepsy score of 10 mice in one group (the maximum score: 50 points). When the total score was 40 points or less, the activity of the compounds was decided positive. The number of the animals showing remission of catalepsy was expressed by the number of cases showing a catalepsy score of 4 points or less in 10 cases. The catalepsy remission ratio was expressed as the percentage of the total score in the test compound-administered group to the total score in the control group.
row,Compound,Number of animals showing remission
1,"Nc1nc(CO)cc2nc(-c3ccco3)nn12 [Compound 22, 5-Amino-2-(2-furyl)-7-hydroxymethyl[1,2,4]triazolo[1,5-c]-pyrimidine]",10
2,"CCOC1(c2cc3nc(-c4ccco4)nn3c(N)n2)CC1 [Compound 26, 5-Amino-7-(1-ethoxycyclopropyl)-2-(2-furyl)[1,2,4]triazolo [1,5-c]pyrimidine]",10
3,"CC(C)(O)c1ccccc1OCc1cc2nc(-c3ccco3)nn2c(N)n1 [Compound 29, 5-Amino-7-[2-(1-hydroxy-1-methylethyl)phenoxymethyl]-2-(2-furyl)[1,2,4]triazolo[1,5-c]pyrimidine]",10
4,"Nc1nc(C(=O)c2ccc(F)cc2)cc2nc(-c3ccco3)nn12 [Compound 40, 5-Amino-7-(4-fluorobenzoyl)-2-(2-furyl)[1,2,4]triazolo-[1,5-c]pyrimidine]",10
5,"Nc1nc(-c2ccccn2)cc2nc(-c3ccco3)nn12 [Compound 52, 5-Amino-2-(2-furyl)-7-(2-pyridyl)[1,2,4]triazolo[1,5-c]-pyrimidine]",9
6,"Nc1nc(-c2cccnc2)cc2nc(-c3ccco3)nn12 [Compound 53, 5-Amino-2-(2-furyl)-7-(3-pyridyl) [1,2,4]triazolo[1,5-c]-pyrimidine]",10
7,"Nc1nc(-c2cc3nc(-c4ccco4)nn3c(N)n2)cs1 [Compound 58, 5-Amino-7-(2-aminothiazol-4-yl)-2-(2-furyl)-[1,2,4]triazolo-[1,5-c]pyrimidine]",10
8,"Nc1nc(-c2cc[nH]n2)cc2nc(-c3ccco3)nn12 [Compound 60, 5-Amino-2-(2-furyl)-7-(1H-pyrazol-3-yl)[1,2,4]triazolo[1,5-c]pyrimidine]",10
9,"Nc1nc(-c2ccc(CO)cn2)cc2nc(-c3ccco3)nn12 [Compound 62, 5-Amino-2-(2-furyl)-7-(3-hydroxymethylpyridin-6-yl)[1,2,4]-triazolo[1,5-c]pyrimidine]",9
10,"CC(C)(O)c1ccc(-c2cc3nc(-c4ccco4)nn3c(N)n2)cc1 [Compound 63, 5-Amino-2-(2-furyl)-7-[4-(1-hydroxy-1-methylethyl)phenyl]-[1,2,4]triazolo[1,5-c]pyrimidine]",10
11,"Nc1nc(C#CC2(O)CCCC2)cc2nc(-c3ccco3)nn12 [Compound 69, 5-Amino-2-(2-furyl)-7-[2-(1-hydroxycyclopentyl)ethynyl][1,2,4]triazolo[1,5-c]pyrimidine]",10
12,"COc1ccc(CNC(=O)c2cc3nc(-c4ccco4)nn3c(N)n2)cc1OC [Compound 80, 5-Amino-2-(2-furyl)[1,2,4]triazolo[1,5-c]pyrimidine-7-carboxylic acid (3,4-dimethoxybenzyl)amide]",9
13,"COc1ccc(CN(C)C(=O)c2cc3nc(-c4ccco4)nn3c(N)n2)cc1OC [Compound 81, 5-Amino-2-(2-furyl)[1,2,4]triazolo[1,5-c]pyrimidine-7-carboxylic acid [N-(3,4-dimethoxybenzyl)-N-methyl]amide]",10
14,"Nc1nc(C(=O)NCc2cccnc2)cc2nc(-c3ccco3)nn12 [Compound 83, 5-Amino-2-(2-furyl) [1,2,4]triazolo[1,5-c]pyrimidine-7-carboxylic acid (3-pyridylmethyl)amide]",10
15,"Nc1nc(C(=O)NCCc2ccccn2)cc2nc(-c3ccco3)nn12 [Compound 84, 5-Amino-2-(2-furyl) [1,2,4]triazolo[1,5-c]pyrimidine-7-carboxylic acid [2-(2-pyridyl)ethyl]amide]",10
16,"CN(CCc1ccccn1)C(=O)c1cc2nc(-c3ccco3)nn2c(N)n1 [Compound 85, 5-Amino-2-(2-furyl)[1,2,4]triazolo[1,5-c]pyrimidine-7-carboxylic acid {N-[2-(2-pyridyl)ethyl]-N-methyl}amide]",10

row,Compound,Number of animals showing remission
1,"COCCNC(=O)c1cc2nc(-c3ccco3)nn2c(N)n1 [Compound 86, 5-Amino-2-(2-furyl)[1,2,4]triazolo[1,5-c]pyrimidine-7-carboxylic acid (2-methoxyethyl)amide]",10
2,"COCCN(C)C(=O)c1cc2nc(-c3ccco3)nn2c(N)n1 [Compound 87, 5-Amino-2-(2-furyl)[1,2,4]triazolo[1,5-c]pyrimidine-7-carboxylic acid [N-(2-methoxyethyl)-N-methyl]amide]",9
3,"CC(C)NC(=O)c1cc2nc(-c3ccco3)nn2c(N)n1 [Compound 89, 5-Amino-2-(2-furyl) [1,2,4]triazolo[1,5-c]pyrimidine-7-carboxylic acid isopropylamide]",9
4,"Nc1nc(C(=O)NCc2ccccc2)cc2nc(-c3ccco3)nn12 [Compound 91, 5-Amino-2-(2-furyl)[1,2,4]triazolo[1,5-c]pyrimidine-7-carboxylic acid benzylamide]",10
5,Nc1nc(C(=O)NCCCN2CCCC2=O)cc2nc(-c3ccco3)nn12 [Compound 92],9
6,"CCN(Cc1ccncc1)C(=O)c1cc2nc(-c3ccco3)nn2c(N)n1 [Compound 102, 5-Amino-2-(2-furyl)[1,2,4]triazolo[1,5-c]pyrimidine-7-carboxylic acid [N-ethyl-N-(4-pyridylmethyl)]amide]",10
7,"CN(Cc1cccnc1)C(=O)c1cc2nc(-c3ccco3)nn2c(N)n1 [Compound 105, 5-Amino-2-(2-furyl)[1,2,4]triazolo[1,5-c]pyrimidine-7-carboxylic acid [N-methyl-N-(3-pyridylmethyl)]amide]",9
8,"CN(Cc1ccc2c(c1)OCO2)C(=O)c1cc2nc(-c3ccco3)nn2c(N)n1 [Compound 107, 5-Amino-2-(2-furyl)[1,2,4]triazolo[1,5-c]pyrimidine-7-carboxylic acid [N-(1,3-benzodioxol-5-ylmethyl)-N-methyl]amide monohydrochloride]",10
9,"COc1ccc(CN(C)C(=O)c2cc3nc(-c4ccco4)nn3c(N)n2)cc1 [Compound 108, 5-Amino-2-(2-furyl)[1,2,4]triazolo[1,5-c]pyrimidine-7-caroboxylic acid [N-(4-methoxybenzyl)-N-methyl]amide monohydrochloride]",10
10,"CN(Cc1ccnc2ccccc12)C(=O)c1cc2nc(-c3ccco3)nn2c(N)n1 [Compound 113, 5-Amino-2-(2-furyl)[1,2,4]triazolo[1,5-c]pyrimidine-7-carboxylic acid [N-methyl-N-(4-quinolylmethyl)]amide]",8
11,"CN(C(=O)c1cc2nc(-c3ccco3)nn2c(N)n1)c1ccc(Cl)nc1 [Compound 118, 5-Amino-2-(2-furyl)[1,2,4]triazolo[1,5-c]pyrimidine-7-carboxylic acid [N-(6-chloropyridin-3-yl)-N-methyl]amide]",10
12,"CN(Cc1ccc(F)cc1)C(=O)c1cc2nc(-c3ccco3)nn2c(N)n1 [Compound 121, 5-Amino-2-(2-furyl)[1,2,4]triazolo[1,5-c]pyrimidine-7-carboxylic acid [N-(4-fluorobenzyl)-N-methyl]amide monohydrochloride]",9
13,"CN(Cc1ccccc1Cl)C(=O)c1cc2nc(-c3ccco3)nn2c(N)n1 [Compound 122, 5-Amino-2-(2-furyl)[1,2,4]triazolo[1,5-c]pyrimidine-7-carboxylic acid [N-(2-chlorobenzyl)-N-methyl]amide monohydrochloride]",10
14,"CCN(Cc1cccnc1Cl)C(=O)c1cc2nc(-c3ccco3)nn2c(N)n1 [Compound 129, 5-Amino-2-(2-furyl)[1,2,4]triazolo[1,5-c]pyrimidine-7-carboxylic acid [N-ethyl-N-(2-chloropyridin-3-ylmethyl)]-amide]",9
15,"Cc1ccc(CN(C)C(=O)c2cc3nc(-c4ccco4)nn3c(N)n2)cn1 [Compound 130, 5-Amino-2-(2-furyl)[1,2,4]triazolo[1,5-c]pyrimidine-7-carboxylic acid [N-methyl-N-(6-methylpyridin-3-ylmethyl)]-amide]",8
16,"COc1ccc(CN(C)C(=O)c2cc3nc(-c4ccco4)nn3c(N)n2)cn1 [Compound 131, 5-Amino-2-(2-furyl)[1,2,4]triazolo[1,5-c]pyrimidine-7-carboxylic acid [N-methyl-N-(6-methoxypyridin-3-ylmethyl)]-amide]",10
